From the supplement of paper PMC4862054
Most values lie at the level of the controls, where differences are scatter.

Columns and labels:
Assay in all cases: normalised response (% of control), CellTox Green; higher = less cell death (100 = DMSO, 0 = benzethonium chloride kill control)
Conditions in all cases: incubation time: 72 h
HCC1937 = tested on: HCC1937
Protocol: (§1)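 DSRT, 72 h incubation, CellTox Green / CellTiter-Glo readout. Signal is normalised to DMSO and benzethonium chloride controls. Value is the normalised response at the lowest tested concentration.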

HCC1143 = tested on: HCC1143
Protocol: as §1

CAL-85-1 = tested on: CAL-85-1
Protocol: as §1

Hs578T = tested on: Hs578T
Protocol: as §1

MDA-MB-453 = tested on: MDA-MB-453
Protocol: as §1

CAL-148 = tested on: CAL-148
Protocol: as §1

CAL-120 = tested on: CAL-120
Protocol: as §1

MDA-MB-468 = tested on: MDA-MB-468
Protocol: as §1

MFM-223 = tested on: MFM-223
Protocol: as §1

MDA-MB-231 = tested on: MDA-MB-231
Protocol: as §1

BT-474 = tested on: BT-474
Protocol: as §1

DU-4475 = tested on: DU-4475
Protocol: as §1

HDQ-P1 = tested on: HDQ-P1
Protocol: as §1

CAL-51 = tested on: CAL-51
Protocol: as §1

HCC1599 = tested on: HCC1599
Protocol: as §1

MCF-10A = tested on: MCF-10A
Protocol: as §1

MDA-MB-436 = tested on: MDA-MB-436
Protocol: as §1

BT-549 = tested on: BT-549
Protocol: as §1

SMILES	normalised response (HCC1937) [%]	normalised response (HCC1143) [%]	normalised response (CAL-85-1) [%]	normalised response (Hs578T) [%]	normalised response (MDA-MB-453) [%]	normalised response (CAL-148) [%]	normalised response (CAL-120) [%]	normalised response (MDA-MB-468) [%]	normalised response (MFM-223) [%]	normalised response (MDA-MB-231) [%]	normalised response (BT-474) [%]	normalised response (DU-4475) [%]	normalised response (HDQ-P1) [%]	normalised response (CAL-51) [%]	normalised response (HCC1599) [%]	normalised response (MCF-10A) [%]	normalised response (MDA-MB-436) [%]	normalised response (BT-549) [%]
CC(=O)[C@]1(O)Cc2c(O)c3c(c(O)c2[C@@H](O[C@H]2C[C@H](N)[C@H](O)[C@H](C)O2)C1)C(=O)c1ccccc1C3=O [Idarubicin] (0.1 nM)	94.5	124	99.4	106	104	106	96.5	72.8	97.6	95	101	101	102	106	100	91.1	68	103
N[C@@H](Cc1ccc(N(CCCl)CCCl)cc1)C(=O)O [Melphalan] (1.25 nM)	109	101	97.3	97.6	101	95.2	104	–	102	115	101	112	92.2	118	112	98	106	105
COCC[n+]1c2c(n(Cc3cnccn3)c1C)C(=O)c1ccccc1C2=O [YM155] (1 nM)	60.8	90.6	109	94.9	99.2	104	97.7	104	–	95.6	100	96	101	114	84.4	90.4	86.7	97.9
CC[C@]1(O)C[C@@H]2CN(CCc3c([nH]c4ccccc34)[C@@](C(=O)OC)(c3cc4c(cc3OC)N(C)[C@H]3[C@@](O)(C(=O)OC)[C@H](OC(C)=O)[C@]5(CC)C=CCN6CC[C@]43[C@@H]65)C2)C1 [Vinblastine] (0.1 nM)	109	–	97.3	108	106	57.9	103	98.6	102	107	99.9	102	92.6	117	102	104	63.3	100
O=C(O)CC[C@H]1CC[C@@](c2cc(F)ccc2F)(S(=O)(=O)c2ccc(Cl)cc2)CC1 [MK-0752] (0.1 nM)	103	104	81.8	–	113	52	94.1	98.9	98.9	109	102	108	106	101	112	93.3	77.9	90
Nc1cccc2c1CN(C1CCC(=O)NC1=O)C2=O (stereo not drawn) [Lenalidomide] (1 nM)	–	117	96.4	110	96.1	94.9	102	83	86.5	106	103	99.4	105	116	101	90.8	81.4	101
